According to the supplement of paper PMC10849652:
This is one part of the list.

Sequences of proteins named here, by UniProt entry; tags and fusion partners are left off. A change or cut given only in a name is not applied to a line headed by its entry.
UniProt Q9Y3B8: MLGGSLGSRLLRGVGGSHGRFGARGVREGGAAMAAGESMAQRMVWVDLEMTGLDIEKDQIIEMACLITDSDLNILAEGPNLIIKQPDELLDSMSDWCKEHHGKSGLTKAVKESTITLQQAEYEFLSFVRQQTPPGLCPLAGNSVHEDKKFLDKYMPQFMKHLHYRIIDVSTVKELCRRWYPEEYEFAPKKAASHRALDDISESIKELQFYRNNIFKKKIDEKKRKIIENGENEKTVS
UniProt P35251: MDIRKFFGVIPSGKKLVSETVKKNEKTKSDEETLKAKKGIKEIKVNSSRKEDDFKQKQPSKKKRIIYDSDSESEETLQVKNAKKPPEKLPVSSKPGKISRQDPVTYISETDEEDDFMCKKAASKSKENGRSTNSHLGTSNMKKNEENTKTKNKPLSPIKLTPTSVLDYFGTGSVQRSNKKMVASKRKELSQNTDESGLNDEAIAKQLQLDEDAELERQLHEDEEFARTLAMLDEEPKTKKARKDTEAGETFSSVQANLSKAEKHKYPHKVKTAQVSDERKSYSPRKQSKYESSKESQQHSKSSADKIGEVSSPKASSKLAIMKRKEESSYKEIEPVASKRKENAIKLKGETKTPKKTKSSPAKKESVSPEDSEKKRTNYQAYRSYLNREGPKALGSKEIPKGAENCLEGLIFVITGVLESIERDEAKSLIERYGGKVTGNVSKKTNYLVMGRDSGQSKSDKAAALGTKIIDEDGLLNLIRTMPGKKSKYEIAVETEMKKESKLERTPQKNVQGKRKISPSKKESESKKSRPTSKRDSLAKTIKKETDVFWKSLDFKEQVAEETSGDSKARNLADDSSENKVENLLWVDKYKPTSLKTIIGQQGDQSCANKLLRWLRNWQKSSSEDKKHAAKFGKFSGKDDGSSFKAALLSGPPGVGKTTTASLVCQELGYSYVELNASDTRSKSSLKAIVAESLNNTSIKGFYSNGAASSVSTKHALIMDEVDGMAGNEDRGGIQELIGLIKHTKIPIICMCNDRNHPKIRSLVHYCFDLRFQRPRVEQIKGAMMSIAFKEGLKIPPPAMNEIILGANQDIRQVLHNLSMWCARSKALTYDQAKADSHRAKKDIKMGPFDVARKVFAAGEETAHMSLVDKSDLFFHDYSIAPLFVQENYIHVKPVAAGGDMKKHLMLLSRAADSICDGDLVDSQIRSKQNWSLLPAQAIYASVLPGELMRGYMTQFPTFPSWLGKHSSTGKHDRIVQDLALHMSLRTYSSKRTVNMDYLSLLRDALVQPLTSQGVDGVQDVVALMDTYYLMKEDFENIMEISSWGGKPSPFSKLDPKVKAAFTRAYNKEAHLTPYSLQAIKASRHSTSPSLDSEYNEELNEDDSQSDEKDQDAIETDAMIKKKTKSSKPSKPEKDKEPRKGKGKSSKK
UniProt Q9H1K0: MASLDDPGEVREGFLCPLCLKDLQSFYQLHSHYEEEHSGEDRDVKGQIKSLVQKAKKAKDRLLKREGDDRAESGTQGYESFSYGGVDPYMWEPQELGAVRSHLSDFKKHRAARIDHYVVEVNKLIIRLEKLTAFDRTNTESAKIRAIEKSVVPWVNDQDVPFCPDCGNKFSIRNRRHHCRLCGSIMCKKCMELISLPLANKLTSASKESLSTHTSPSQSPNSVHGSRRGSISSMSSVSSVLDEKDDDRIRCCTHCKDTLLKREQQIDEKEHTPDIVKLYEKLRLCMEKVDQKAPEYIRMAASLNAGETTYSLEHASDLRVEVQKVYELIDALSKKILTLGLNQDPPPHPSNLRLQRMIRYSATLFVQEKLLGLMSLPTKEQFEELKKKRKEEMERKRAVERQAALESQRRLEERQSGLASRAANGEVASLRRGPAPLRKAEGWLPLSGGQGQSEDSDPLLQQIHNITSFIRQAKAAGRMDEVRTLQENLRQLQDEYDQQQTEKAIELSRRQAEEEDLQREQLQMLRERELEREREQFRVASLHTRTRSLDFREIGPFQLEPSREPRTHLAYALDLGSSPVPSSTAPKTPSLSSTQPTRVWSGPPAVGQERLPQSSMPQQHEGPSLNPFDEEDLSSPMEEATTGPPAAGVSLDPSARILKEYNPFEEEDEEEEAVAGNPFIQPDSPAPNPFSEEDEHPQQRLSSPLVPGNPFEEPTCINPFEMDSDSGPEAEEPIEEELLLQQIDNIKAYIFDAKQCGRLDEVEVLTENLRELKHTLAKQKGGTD
UniProt Q9P0P0: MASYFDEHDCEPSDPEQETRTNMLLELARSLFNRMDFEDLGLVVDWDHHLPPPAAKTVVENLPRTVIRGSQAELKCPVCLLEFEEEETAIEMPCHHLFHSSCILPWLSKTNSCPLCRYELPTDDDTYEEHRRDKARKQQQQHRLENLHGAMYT
UniProt Q8IUF8: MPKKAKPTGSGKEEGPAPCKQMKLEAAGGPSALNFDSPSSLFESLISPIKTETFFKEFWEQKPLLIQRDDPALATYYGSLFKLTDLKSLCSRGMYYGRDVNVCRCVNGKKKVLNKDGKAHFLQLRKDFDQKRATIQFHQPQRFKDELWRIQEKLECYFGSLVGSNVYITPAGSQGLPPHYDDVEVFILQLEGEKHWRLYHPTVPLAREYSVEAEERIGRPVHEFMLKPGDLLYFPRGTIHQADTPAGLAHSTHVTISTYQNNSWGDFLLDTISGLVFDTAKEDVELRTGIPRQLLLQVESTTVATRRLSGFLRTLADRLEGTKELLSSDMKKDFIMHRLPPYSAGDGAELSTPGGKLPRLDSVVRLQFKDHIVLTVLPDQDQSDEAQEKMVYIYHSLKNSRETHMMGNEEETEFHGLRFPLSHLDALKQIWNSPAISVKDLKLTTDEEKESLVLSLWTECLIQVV
UniProt Q04206, whole entry, looked up: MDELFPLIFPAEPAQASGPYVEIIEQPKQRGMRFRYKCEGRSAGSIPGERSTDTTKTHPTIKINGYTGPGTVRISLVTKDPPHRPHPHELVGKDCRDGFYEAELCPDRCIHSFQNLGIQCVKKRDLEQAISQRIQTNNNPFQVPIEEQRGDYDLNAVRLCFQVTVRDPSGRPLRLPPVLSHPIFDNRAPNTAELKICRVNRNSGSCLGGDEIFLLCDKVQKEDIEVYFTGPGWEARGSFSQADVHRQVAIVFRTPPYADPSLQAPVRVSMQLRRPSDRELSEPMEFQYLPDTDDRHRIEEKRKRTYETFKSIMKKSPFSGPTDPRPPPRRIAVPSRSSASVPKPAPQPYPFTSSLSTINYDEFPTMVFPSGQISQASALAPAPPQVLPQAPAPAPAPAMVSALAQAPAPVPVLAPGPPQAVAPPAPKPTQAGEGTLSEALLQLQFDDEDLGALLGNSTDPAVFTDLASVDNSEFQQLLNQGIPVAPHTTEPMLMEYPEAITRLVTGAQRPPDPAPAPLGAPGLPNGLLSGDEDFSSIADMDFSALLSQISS
UniProt P78332: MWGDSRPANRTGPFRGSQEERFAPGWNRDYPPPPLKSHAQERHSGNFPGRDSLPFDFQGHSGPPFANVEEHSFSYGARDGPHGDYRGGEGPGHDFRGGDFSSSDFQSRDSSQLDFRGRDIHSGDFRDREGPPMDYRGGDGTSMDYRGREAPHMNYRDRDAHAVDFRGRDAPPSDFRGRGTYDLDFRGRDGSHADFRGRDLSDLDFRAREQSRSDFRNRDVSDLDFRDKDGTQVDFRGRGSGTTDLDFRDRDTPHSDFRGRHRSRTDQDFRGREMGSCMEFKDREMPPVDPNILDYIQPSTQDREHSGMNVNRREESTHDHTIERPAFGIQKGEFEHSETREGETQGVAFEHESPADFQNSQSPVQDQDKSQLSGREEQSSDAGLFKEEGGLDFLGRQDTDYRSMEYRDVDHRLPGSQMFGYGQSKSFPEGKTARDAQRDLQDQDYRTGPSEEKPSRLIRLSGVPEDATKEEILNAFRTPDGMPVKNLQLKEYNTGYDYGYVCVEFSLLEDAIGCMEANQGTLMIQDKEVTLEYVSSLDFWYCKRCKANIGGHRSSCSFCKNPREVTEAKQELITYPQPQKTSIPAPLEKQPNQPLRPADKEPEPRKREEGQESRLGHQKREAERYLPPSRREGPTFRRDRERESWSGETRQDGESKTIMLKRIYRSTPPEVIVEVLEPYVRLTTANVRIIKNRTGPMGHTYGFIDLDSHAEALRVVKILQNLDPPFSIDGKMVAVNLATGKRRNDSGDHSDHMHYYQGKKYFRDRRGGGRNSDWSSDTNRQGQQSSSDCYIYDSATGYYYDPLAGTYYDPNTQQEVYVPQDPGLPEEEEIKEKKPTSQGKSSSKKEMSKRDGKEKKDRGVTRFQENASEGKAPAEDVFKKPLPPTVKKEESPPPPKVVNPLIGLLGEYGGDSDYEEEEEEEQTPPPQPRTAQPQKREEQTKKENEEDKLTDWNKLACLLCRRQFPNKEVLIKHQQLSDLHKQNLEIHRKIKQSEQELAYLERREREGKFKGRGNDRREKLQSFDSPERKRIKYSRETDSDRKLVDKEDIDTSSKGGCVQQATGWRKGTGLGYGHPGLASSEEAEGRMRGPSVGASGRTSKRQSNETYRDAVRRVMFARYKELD
UniProt Q9UBS8: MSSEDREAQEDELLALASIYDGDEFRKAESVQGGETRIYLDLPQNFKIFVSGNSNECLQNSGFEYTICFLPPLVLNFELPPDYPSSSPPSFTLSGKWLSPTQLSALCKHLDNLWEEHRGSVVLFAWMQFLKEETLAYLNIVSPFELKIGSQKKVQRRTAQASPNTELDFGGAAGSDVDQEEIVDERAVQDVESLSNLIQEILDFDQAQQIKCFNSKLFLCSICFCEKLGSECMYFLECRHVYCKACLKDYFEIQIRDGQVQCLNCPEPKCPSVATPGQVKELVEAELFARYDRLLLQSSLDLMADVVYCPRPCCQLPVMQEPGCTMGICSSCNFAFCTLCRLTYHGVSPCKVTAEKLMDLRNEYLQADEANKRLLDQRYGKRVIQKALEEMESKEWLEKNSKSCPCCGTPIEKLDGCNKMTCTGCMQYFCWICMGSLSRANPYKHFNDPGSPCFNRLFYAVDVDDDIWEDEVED
UniProt O00287: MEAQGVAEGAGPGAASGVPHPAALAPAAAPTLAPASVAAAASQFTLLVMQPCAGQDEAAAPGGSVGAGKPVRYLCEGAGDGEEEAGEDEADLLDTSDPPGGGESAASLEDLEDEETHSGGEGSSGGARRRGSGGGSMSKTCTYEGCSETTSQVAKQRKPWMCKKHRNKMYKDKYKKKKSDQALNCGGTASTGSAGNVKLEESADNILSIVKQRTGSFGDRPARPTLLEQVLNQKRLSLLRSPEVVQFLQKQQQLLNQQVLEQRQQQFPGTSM
UniProt Q8WZ73: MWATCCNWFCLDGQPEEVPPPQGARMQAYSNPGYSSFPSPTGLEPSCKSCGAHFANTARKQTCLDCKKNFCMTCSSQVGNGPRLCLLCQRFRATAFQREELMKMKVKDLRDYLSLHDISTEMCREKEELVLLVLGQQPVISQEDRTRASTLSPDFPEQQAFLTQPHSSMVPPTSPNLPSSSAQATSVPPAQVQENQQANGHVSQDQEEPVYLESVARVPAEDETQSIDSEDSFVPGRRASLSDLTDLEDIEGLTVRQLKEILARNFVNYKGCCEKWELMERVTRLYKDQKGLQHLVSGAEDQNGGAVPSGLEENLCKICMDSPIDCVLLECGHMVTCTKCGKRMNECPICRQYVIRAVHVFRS
UniProt Q9Y3C5: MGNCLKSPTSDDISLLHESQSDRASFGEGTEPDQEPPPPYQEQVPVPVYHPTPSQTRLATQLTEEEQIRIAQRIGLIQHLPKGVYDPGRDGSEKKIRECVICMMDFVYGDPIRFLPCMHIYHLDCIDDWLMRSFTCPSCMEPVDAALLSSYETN
UniProt P09455: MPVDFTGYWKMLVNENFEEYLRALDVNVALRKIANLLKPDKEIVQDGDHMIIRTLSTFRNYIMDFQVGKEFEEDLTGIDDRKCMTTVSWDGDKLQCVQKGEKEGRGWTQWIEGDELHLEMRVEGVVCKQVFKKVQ
UniProt Q9H6W3: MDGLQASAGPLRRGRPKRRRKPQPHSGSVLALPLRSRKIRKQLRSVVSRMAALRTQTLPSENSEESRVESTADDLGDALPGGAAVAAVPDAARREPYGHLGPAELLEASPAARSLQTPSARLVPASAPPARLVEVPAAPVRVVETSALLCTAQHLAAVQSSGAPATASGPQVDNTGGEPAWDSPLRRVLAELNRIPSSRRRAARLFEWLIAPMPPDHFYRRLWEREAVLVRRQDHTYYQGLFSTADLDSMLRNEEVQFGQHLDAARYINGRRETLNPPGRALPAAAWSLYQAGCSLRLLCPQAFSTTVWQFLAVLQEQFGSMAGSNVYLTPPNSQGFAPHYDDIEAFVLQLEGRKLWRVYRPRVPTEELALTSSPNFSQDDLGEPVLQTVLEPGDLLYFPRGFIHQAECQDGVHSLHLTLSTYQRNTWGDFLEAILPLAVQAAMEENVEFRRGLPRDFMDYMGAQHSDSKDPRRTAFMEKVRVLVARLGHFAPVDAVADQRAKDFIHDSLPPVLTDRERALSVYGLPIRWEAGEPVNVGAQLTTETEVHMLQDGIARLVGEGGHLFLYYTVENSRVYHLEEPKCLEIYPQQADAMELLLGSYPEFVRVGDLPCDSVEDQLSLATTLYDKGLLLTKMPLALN

Experiments:
Assay in all cases: log2 fold change, soluble protein after heating vs DMSO (PISA); higher = thermal stabilisation; K562 cells, 10 uM, 30 min; active = over 0.2 and 3.5 SD of the protein, either way, in both replicates (recomputed)
[1] = compound: NC(=O)Nc1cc(-c2cccc(F)c2)sc1C(=O)N[C@H]1CCCNC1
Procedure, shortened: (§1)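 K562 cells at 2×10^6 cells/mL were treated for 30 min with 10 μM compound, and aliquots were heated for 3 min over 48°C-58°C before pooling. Extraction used PBS with 0.5% NP-40 at 4°C, and soluble protein was the supernatant after 21,000xg for 90 min, measured by TMTpro 16plex LC-MS/MS with channel sums equalised. Thermal stability values, relative to control samples and from duplicates, are log2 fold changes.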

[2] = compound: NC(=O)c1cnc(N[C@@H]2CCCC[C@@H]2N)nc1Nc1cccc(-n2nccn2)c1
Procedure, shortened: as §1

[3] = compound: NC1(c2ccc(-c3nc4ccn5c(=O)[nH]nc5c4cc3-c3ccccc3)cc2)CCC1
Procedure, shortened: as §1

[4] = compound: NCC(=O)Nc1ccc(-n2nc(C(F)(F)F)cc2-c2ccc3c(ccc4ccccc43)c2)cc1
Procedure, shortened: as §1

[5] = compound: Nc1ccccc1NC(=O)c1ccc(CNC(=O)OCc2cccnc2)cc1 [entinostat]
Procedure, shortened: as §1

[6] = compound: O=C(CCCCCCC(=O)Nc1ccccc1)NO [vorinostat]
Procedure, shortened: as §1

[7] = compound: O=C(O)c1ccc2c(c1)nc(Nc1cccc(Cl)c1)c1ccncc12 [silmitasertib]
Procedure, shortened: as §1

[8] = compound: O=C(CCCCCCNC(=O)c1cnc(N(c2ccccc2)c2ccccc2Cl)nc1)NO [citarinostat]
Procedure, shortened: as §1

[9] = compound: O=C1NC(=O)C(c2cnc3ccccn23)=C1c1cn2c3c(cc(F)cc13)CN(C(=O)N1CCCCC1)CC2
Procedure, shortened: as §1

[10] = compound: c1cc(OCCN2CCCCC2)cc(-c2n[nH]c3ccc(-c4nnc[nH]4)cc23)c1
Procedure, shortened: as §1

Measured: log2 fold change

RNF166 (UniProt Q96A37)
inactive: [1] -0.022 | [2] 0.022 | [3] 0.026 | [4] 0.031 | [5] 0.004 | [6] -0.024 | [7] 0.041

RNF146 (UniProt Q9NTX7)
inactive: [1] -0.085 | [2] -0.084 | [4] -0.057 | [5] 0.036 | [8] 0.123 | [9] -0.039 | [10] -0.005

REEP4 (UniProt Q9H6H4)
inactive: [1] 0.002 | [2] -0.032 | [3] -0.012 | [4] 0.084 | [5] 0.027 | [6] 0.088 | [8] 0.048 | [7] 0.027 | [9] 0.097 | [10] -0.059

RGP1 (UniProt Q92546)
inactive: [1] 0.102 | [2] -0.028 | [3] -0.212 | [4] -0.055 | [5] 0.112 | [7] -0.075 | [9] -0.021

REXO2 (UniProt Q9Y3B8)
inactive: [1] 0.023 | [2] -0.005 | [3] 0.024 | [4] 0.015 | [5] -0.01 | [6] 0.034 | [8] 0.021 | [7] -0.018 | [9] -0.056 | [10] -0.007

RCOR3 isoform 3 (UniProt Q9P2K3)
inactive: [1] 0.019 | [2] -0.067 | [3] -0.129 | [4] -0.177 | [5] 0.1 | [6] 0.127 | [8] 0.115 | [7] -0.043 | [10] -0.075

RGS10 (UniProt O43665)
inactive: [1] 0.077 | [2] 0.068 | [3] -0.037 | [4] 0.11 | [5] 0.038 | [6] 0.054 | [8] 0.087 | [7] 0.01 | [9] -0.057 | [10] 0.033

RBM8A (UniProt Q9Y5S9)
inactive: [1] -0.044 | [2] 0.075 | [3] -0.045 | [4] -0.068 | [5] 0.037 | [6] -0.025 | [8] 0.03 | [7] 0.011 | [9] -0.019 | [10] -0.076

RFWD3 (UniProt Q6PCD5)
inactive: [1] 0.113 | [2] -0.234 | [4] -0.199 | [5] 0.046 | [9] -0.025

RBP5 (UniProt P82980)
inactive: [1] 0.182 | [2] 0.047 | [3] -0.022 | [5] 0 | [6] 0.143 | [8] 0.121 | [7] -0.002 | [9] 0.083 | [10] 0

RFX5 (UniProt P48382)
inactive: [1] -0.074 | [2] -0.324 | [5] 0.013 | [6] -0.057 | [9] 0.073

RFC1 (UniProt P35251)
inactive: [1] -0.028 | [2] 0.098 | [4] -0.021 | [5] -0.059 | [6] 0.05

RFC5 (UniProt P40937)
inactive: [1] 0.029 | [2] -0.022 | [3] -0.097 | [4] -0.001 | [5] 0 | [6] 0.059 | [8] 0.022 | [7] -0.016 | [9] 0 | [10] -0.02

RNF167 (UniProt Q9H6Y7)
inactive: [1] 0.015 | [2] -0.062 | [3] -0.278 | [4] -0.03 | [5] -0.032 | [6] 0.014 | [7] 0.095 | [9] -0.028

RHOXF2B (UniProt P0C7M4)
inactive: [1] -0.113 | [2] 0.079 | [5] -0.051

RICTOR isoform 3 (UniProt Q6R327)
inactive: [1] 0.075 | [2] 0.054 | [5] 0.044 | [6] 0.211 | [8] 0.066 | [9] 0.289 | [10] -0.155

RBSN (UniProt Q9H1K0)
inactive: [1] 0.255 | [2] -0.335 | [4] -0.033 | [5] -0.014 | [6] 0.117 | [8] -0.006 | [10] -0.068

RNF181 (UniProt Q9P0P0)
inactive: [1] -0.032 | [2] 0.038 | [3] 0.025 | [4] 0.03 | [5] -0.021 | [6] 0.021 | [8] 0.014 | [7] -0.005 | [9] -0.044 | [10] 0.01

RIOX2 (UniProt Q8IUF8)
inactive: [1] -0.089 | [2] -0.089 | [3] -0.032 | [4] 0.061 | [5] 0.081 | [6] 0.019 | [7] 0.049 | [9] 0.164

RBM48 isoform 2 (UniProt Q5RL73)
inactive: [1] -0.334 | [2] -0.008 | [5] 0.262 | [6] 0.005 | [9] 0.029

RNF168 (UniProt Q8IYW5)
inactive: [1] -0.02 | [2] 0.023 | [3] -0.065 | [5] 0.001 | [7] 0.049

Random excerpt: 2 entries already listed.
RNF181 (UniProt Q9P0P0)
inactive: [1] -0.032 | [2] 0.038 | [3] 0.025 | [4] 0.03 | [5] -0.021 | [6] 0.021 | [8] 0.014 | [7] -0.005 | [9] -0.044 | [10] 0.01

RNF168 (UniProt Q8IYW5)
inactive: [1] -0.02 | [2] 0.023 | [3] -0.065 | [5] 0.001 | [7] 0.049

Going on with the list:

RLIM (UniProt Q9NVW2)
inactive: [1] 0.117 | [2] -0.063 | [4] -0.019 | [5] -0.219 | [6] 0.122 | [8] 0.027 | [10] -0.123

RELA (UniProt Q04206)
inactive: [1] -0.009 | [2] -0.06 | [3] -0.121 | [4] -0.016 | [5] 0.019 | [6] 0.036 | [8] 0.079 | [7] -0.029 | [9] -0.017 | [10] -0.002

RNF13 (UniProt O43567)
inactive: [1] -0.008 | [2] -0.04 | [4] 0.085 | [5] -0.016 | [8] -0.035 | [9] 0.065 | [10] 0.063

RFX1 (UniProt P22670)
inactive: [1] 0.071 | [2] -0.016 | [3] -0.102 | [4] -0.049 | [5] -0.01 | [6] -0.063 | [8] -0.056 | [7] 0.015 | [9] 0.016 | [10] 0.002

RBM6 (UniProt P78332)
inactive: [1] 0.099 | [2] -0.06 | [3] 0.222 | [5] -0.317 | [6] -0.012 | [7] 0.017

RNF14 (UniProt Q9UBS8)
inactive: [1] -0.016 | [2] -0.054 | [3] -0.157 | [4] 0.008 | [5] 0.037 | [6] 0.021 | [8] -0.006 | [7] 0.003 | [9] -0.127 | [10] -0.007

RETREG2 (UniProt Q8NC44)
inactive: [1] 0.084 | [2] -0.045 | [3] 0 | [4] 0.142 | [5] 0.026 | [8] -0.056 | [7] -0.015 | [10] 0.299

RHOB (UniProt P62745)
inactive: [1] -0.089 | [2] 0.159 | [3] -0.065 | [4] 0.138 | [5] 0.016 | [6] 0.023 | [8] 0.146 | [7] 0.009 | [9] -0.291 | [10] -0.039

RC3H1 (UniProt Q5TC82)
inactive: [1] 0.068 | [2] 0.304 | [3] 0.176 | [4] 0.018 | [5] -0.004 | [6] -0.045 | [8] -0.112 | [7] 0.146 | [9] 0.142 | [10] -0.117

RFXAP (UniProt O00287)
inactive: [1] -0.044 | [2] 0.005 | [3] -0.004 | [4] -0.029 | [5] 0.054 | [8] 0.069 | [7] 0 | [9] -0.012 | [10] -0.02

RILP (UniProt Q96NA2)
inactive: [1] 0.013 | [2] -0.01 | [3] -0.036 | [4] 0.006 | [5] -0.024 | [6] 0.062 | [8] 0.044 | [7] -0.077 | [9] -0.034 | [10] 0.104

RNF20 (UniProt Q5VTR2)
inactive: [1] -0.071 | [2] -0.014 | [3] 0.231 | [5] 0.146 | [6] -0.039 | [8] 0.208 | [7] -0.045 | [9] 0.076 | [10] 0.133

RFFL (UniProt Q8WZ73)
inactive: [1] -0.264 | [2] -0.049 | [3] 0.137 | [4] 0.215 | [5] -0.257 | [8] -0.005 | [7] 0.092 | [9] -0.072 | [10] -0.354

RNF11 (UniProt Q9Y3C5)
inactive: [8] -0.1 | [10] -0.039

RBP1 isoform 3 (UniProt P09455)
inactive: [6] -0.228

RIOX1 (UniProt Q9H6W3)
inactive: [6] 0.467 | [8] -0.105 | [10] -0.344
